Data reported in PubChem BioAssay AID540256 (National Center for Advancing Translational Sciences (NCATS), 2011).
Hit rate of the full screen: of about 300,000 compounds, about 3,700 (1.2%) were called active. The inconclusive results got no clear call from the source; some entries with a clear call stand among them for comparison. Calls follow the shape of the full dose curve; tested in HEK293 cells. Potencies of inconclusive entries are doubtful fits and often do not repeat.
% is scaled to controls: 0 for no effect and ±100 for the full control effect; potency is read from the fitted curve at half-maximal effect.

Assay: qHTS for Inhibitors of binding or entry into cells for Lassa Virus; also: nearly all actives have a fitted effect of over 50% in size
Details: Lassa virus pseudotype entry inhibition, cell reporter; activity change, negative = inhibition: at 37.9 µM (top of the series) unless noted
For `O=C(Cn1c(=O)n(-c2ccccc2)c(=O)c2c3c(sc21)CCCC3)Nc1ccccc1`, the Potency was inconclusive: 14.1 µM [inhibitor, single point]. With `COc1cc(/C=C/c2nc3ccccc3c(=O)n2-c2ccc(Br)c(C)c2)ccc1O` the Potency was inconclusive: 7.94 µM [inhibitor, partial curve, poor fit]. In the case of `O=C(NCc1ccc2c(c1)CCN2C(=O)c1ccc(Cl)cc1)c1ccco1`, the Potency is reported as inconclusive: 10 µM [inhibitor, partial curve, poor fit]. For `CCC(C)c1ccc(NC(=S)Nc2ccc(OC)c(OC)c2)cc1` (configuration not stated), the “activity change, negative = inhibition” value was inactive: -20.3%. For `CCn1nc(C(=O)Nc2ccccc2N2CCCC2)c2ccccc2c1=O`, the Potency was inconclusive: 28.2 µM [inhibitor, single point]. For `CCSc1nnc(-c2cccnc2)n1-c1ccc(C)c(Cl)c1`, the “activity change, negative = inhibition” value was inactive: -19.9%. For `Cc1ccc(C2C(C#N)=C(N)N(c3cccnc3)C3=C2C(=O)CCC3)s1` (configuration not stated), the “activity change, negative = inhibition” value was inactive: 7.92%. With `COc1ccc(NC(=S)N2CCC(c3nc4ccccc4o3)CC2)c(OC)c1` the “activity change, negative = inhibition” value was inactive: -8.85% [at 46.1 µM]. In the case of `CCN(CC)c1ccc(NS(=O)(=O)c2ccc(-c3coc(C)n3)cc2)c(C)c1`, the Potency is reported as inconclusive: 2.82 µM [inhibitor, full curve]. With `CC1CCN(c2nc3c(c(=O)n(C)c(=O)n3C)n2CCSc2nc3ccccc3s2)CC1` the Potency was inconclusive: 1.16 µM [activator, single point]. For `CCOc1ccc(-c2cc(C(=O)NCCc3ccccc3)c3c(-c4ccc(C)cc4)[nH]nc3n2)cc1`, the “activity change, negative = inhibition” value was inactive: -0.602% [at 46.1 µM]. With `CC(=O)Nc1ccc(C=NNC(=O)C2CC2)cc1` the “activity change, negative = inhibition” value was inactive: -3.98% [at 46.1 µM]. With `CCCCOC(=O)C1CN(c2ccccc2)N=C1C(C)=O` (configuration not stated) the Potency was inconclusive: 35.5 µM [inhibitor, single point]. In the case of `CC(C)Oc1ccc(Br)cc1/C=N\NC(N)=S`, the Potency is reported as inconclusive: 0.461 µM [inhibitor, partial curve, poor fit]. With `O=C(Nc1ncc(Cc2ccccc2Cl)s1)C1=NCCN1` the Potency was inconclusive: 29.1 µM [inhibitor, single point]. For `COc1ccc(NC(=S)N2CCCC2c2ccc(OC)c(OC)c2)cc1` (configuration not stated), the Potency was inconclusive: 14.1 µM [inhibitor, partial curve, poor fit]. With `Fc1ccc(C2CCCCN2Cc2nc(CC3CC3)no2)cc1` (configuration not stated) the “activity change, negative = inhibition” value was inactive: 13.1%. For `COc1ccc(Cl)cc1NC(=O)Cn1c(=O)oc2ccccc21`, the Potency was inconclusive: 3.98 µM [inhibitor, single point]. For `O=C(/C=C/c1ccccc1)c1ccc2c(c1)OCCCCO2`, the Potency was inconclusive: 11.2 µM [inhibitor, partial curve, poor fit]. For `Cc1ccccc1C(=O)NCCSc1ccccc1`, the Potency was inconclusive: 11.2 µM [inhibitor, partial curve, poor fit]. With `CCCCN(C)C(=O)c1cc2cc3ccc(OC)cc3nc2s1` the Potency was inconclusive: 6.51 µM [inhibitor, full curve]. With `O=C(CN1CCCSc2ccccc21)N1CCN(S(=O)(=O)c2ccccc2)CC1` the Potency was inconclusive: 5.62 µM [activator, single point]. With `O=C(CSc1nc2ccccc2o1)Nc1ccc(N2CCOCC2)c(Cl)c1` the “activity change, negative = inhibition” value was inactive: 5.77%. With `Cc1ccc(Cc2c(C)nc3c(-c4ccccc4)c(C)[nH]n3c2=O)cc1` the “activity change, negative = inhibition” value was inactive: 7.85% [at 46.1 µM]. For `Cc1ccoc1C(=O)Nc1ccc(CC(=O)O)cc1`, the Potency was inconclusive: 7.3 µM [inhibitor, partial curve, poor fit]. With `COc1ccc(NC(=O)C(c2ccccc2)N(C)C(=O)CNC(C)=O)cc1` (configuration not stated) the “activity change, negative = inhibition” value was inactive: 26.4%. For `COc1ccccc1C(c1nnnn1CC1CCCO1)N1CCN(c2ccccc2)CC1` (configuration not stated), the Potency was inconclusive: 32.6 µM [inhibitor, single point]. In the case of `Cc1[nH]c2ccc(CNS(=O)(=O)c3ccc(S(=O)(=O)N4CCOCC4)cc3)cc2c1C`, the Potency is reported as inconclusive: 29.1 µM [inhibitor, single point]. In the case of `Cc1ccc(NC(=S)c2nc3ccccc3[nH]2)c(C)c1`, the Potency is reported as inconclusive: 0.891 µM [activator, single point]. In the case of `CCCCN(CC)CCNC(=O)C1CCN(c2nnc(C)c3c(C)n(-c4ccc(C)cc4)nc23)CC1`, the Potency is reported as inconclusive: 10 µM [inhibitor, partial curve]. In the case of `COc1cccc(/C=C/C(=O)OCC(=O)c2c[nH]c3ccccc23)c1OC`, the “activity change, negative = inhibition” value is reported as inactive: 11.7%. For `CCOc1ccccc1NC(=O)C(OC(=O)C1CC1)c1ccccc1` (configuration not stated), the “activity change, negative = inhibition” value was inactive: 3.17%. In the case of `c1ccc2sc(N3CCN(Cc4nnnn4CC4CCCO4)CC3)nc2c1` (configuration not stated), the Potency is reported as inconclusive: 0.13 µM [inhibitor, full curve, poor fit]. With `CCCCCSc1cc(OC)c(CCN(C)C)cc1OC` the Potency was inconclusive: 10 µM [inhibitor, partial curve, poor fit]. In the case of `COc1ccc(CN(C)C(=O)c2[nH]c(C)c(C(C)=O)c2C)c(OC)c1OC`, the Potency is reported as inconclusive: 22.4 µM [inhibitor, partial curve, poor fit]. With `CCc1ccc(CN(C)C(=O)c2cc(=O)c3ccccc3o2)cc1` the Potency was inconclusive: 35.5 µM [inhibitor, partial curve, poor fit]. In the case of `Oc1ccccc1C1NN=C(c2ccccc2)S1` (configuration not stated), the Potency is reported as inconclusive: 0.501 µM [activator, single point]. In the case of `CCCCCCN1C[C@@H](n2cc(C3CC3)nn2)[C@H](O)C[C@H]1c1ccc(C)cc1`, the Potency is reported as inconclusive: 12.5 µM [inhibitor, partial curve, poor fit]. With `O=C(C1CCC(CNS(=O)(=O)c2ccccc2)CC1)N1CCCCC1` (configuration not stated) the Potency was inconclusive: 35.5 µM [inhibitor, single point]. With `Cc1ccc(-c2nnc(NCc3nc4ccccc4[nH]3)c3ccccc23)cc1S(=O)(=O)N1CCOCC1` the Potency was inconclusive: 15.8 µM [inhibitor, single point]. With `COC(=O)c1ccc(C(=O)Nc2ccc(-c3nc4cc(NC(=O)c5ccc(C(=O)OC)cc5)ccc4o3)cc2)cc1` the Potency was inconclusive: 22.4 µM [activator, single point]. For `COc1ccc(CN(Cc2ccco2)c2cnc(S(C)(=O)=O)nc2C(=O)Nc2ccc(C)c(C)c2)cc1`, the Potency was inconclusive: 35.5 µM [inhibitor, single point].
